Reference: PMC9166773, “Latrophilin-2 is a novel receptor of LRG1 that rescues vascular and neurological abnormalities and restores diabetic erectile function” (Experimental & Molecular Medicine, 2022)
No constants are given. Whether binding was seen depends on the method and setting. Sequences can lack the tags named with a protein.

How the values were obtained:
Lec/Olf domain of LPHN3 = assay: solid-phase binding assay; LRG1 and recombinant extracellular domains of LPHN2 (and Lec/Olf of LPHN1, LPHN3); who was immobilised and conditions not told in the text shown; both purified
Lec/Olf domain of LPHN1 = assay: as above

B1: Leucine-rich alpha-2-glycoprotein 1 (LRG1), recombinant tag-free human LRG1 (ligand, UniProt P02750 36-347, looked up)
chain: VTLSPKDCQVFRSDHGSSISCQPPAEIPGYLPADTVHLAVEFFNLTHLPANLLQGASKLQELHLSSNGLESLSPEFLRPVPQLRVLDLTRNALTGLPPGLFQASATLDTLVLKENQLEVLEVSWLHGLKALGHLDLSGNRLRKLPPGLLANFTLLRTLDLGENQLETLPPDLLRGPLQLERLHLEGNKLQVLGKDLLLPQPDLRYLFLNGNKLARVAAGAFQGLRQLDMLDLSNNSLASVPEGLWASLGQPNWDMRDGFDISGNPWICDQNLSDLYRWLQAQKDKMFSQNDTRCAGPEAVKGQTLLAVAKSQ
notes: human LRG1, residues V36-Q347; In the TriCEPS capture LRG1 was coupled to the TriCEPS reagent; Residues of the thrombin site may remain after cleavage; also called recombinant LRG1; soluble LRG1; not shown: Fc (human IgG), C-terminal, cleaved
- binding (Lec/Olf domain of LPHN3): no binding
- binding (Lec/Olf domain of LPHN1): no binding
